In US20120129189A1, “Methods of Controlling Cell Proliferation” (priority 2009, published 2012) one finds binding data, which are given here for 2 substances.

By UniProt entry, the sequences of proteins in these tests, tags left out. Where a name states a change or a piece, a line headed by the entry shows the natural chain unless it says otherwise. Chains listed by the source or under a name are the forms on record and can include a tag or linker. Residues count along the entry.
UniProt Q02248, residues 2-781: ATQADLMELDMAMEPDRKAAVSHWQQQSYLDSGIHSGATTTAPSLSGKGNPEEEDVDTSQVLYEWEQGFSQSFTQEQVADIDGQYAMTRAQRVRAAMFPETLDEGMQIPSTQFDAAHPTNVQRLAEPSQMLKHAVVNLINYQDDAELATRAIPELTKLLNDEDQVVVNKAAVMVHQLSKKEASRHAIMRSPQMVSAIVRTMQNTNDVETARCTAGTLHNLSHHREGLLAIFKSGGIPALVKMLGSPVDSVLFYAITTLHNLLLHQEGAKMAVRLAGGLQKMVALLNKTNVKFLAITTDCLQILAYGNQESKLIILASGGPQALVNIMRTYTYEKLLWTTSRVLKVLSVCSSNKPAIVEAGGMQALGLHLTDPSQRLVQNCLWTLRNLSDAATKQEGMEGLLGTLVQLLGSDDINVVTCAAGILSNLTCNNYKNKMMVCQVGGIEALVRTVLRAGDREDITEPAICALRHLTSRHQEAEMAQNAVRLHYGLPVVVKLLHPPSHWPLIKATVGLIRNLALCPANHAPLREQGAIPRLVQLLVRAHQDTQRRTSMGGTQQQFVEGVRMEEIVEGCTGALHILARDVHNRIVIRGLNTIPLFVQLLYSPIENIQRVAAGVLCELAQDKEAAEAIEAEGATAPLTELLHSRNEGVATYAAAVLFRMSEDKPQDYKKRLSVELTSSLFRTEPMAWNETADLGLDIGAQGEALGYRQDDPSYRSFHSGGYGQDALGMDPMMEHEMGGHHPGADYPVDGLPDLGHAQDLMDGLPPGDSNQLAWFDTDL
constitutively activated membrane-bound Notch1, wild-type at V1744 (Q01705, residues 1704-2183): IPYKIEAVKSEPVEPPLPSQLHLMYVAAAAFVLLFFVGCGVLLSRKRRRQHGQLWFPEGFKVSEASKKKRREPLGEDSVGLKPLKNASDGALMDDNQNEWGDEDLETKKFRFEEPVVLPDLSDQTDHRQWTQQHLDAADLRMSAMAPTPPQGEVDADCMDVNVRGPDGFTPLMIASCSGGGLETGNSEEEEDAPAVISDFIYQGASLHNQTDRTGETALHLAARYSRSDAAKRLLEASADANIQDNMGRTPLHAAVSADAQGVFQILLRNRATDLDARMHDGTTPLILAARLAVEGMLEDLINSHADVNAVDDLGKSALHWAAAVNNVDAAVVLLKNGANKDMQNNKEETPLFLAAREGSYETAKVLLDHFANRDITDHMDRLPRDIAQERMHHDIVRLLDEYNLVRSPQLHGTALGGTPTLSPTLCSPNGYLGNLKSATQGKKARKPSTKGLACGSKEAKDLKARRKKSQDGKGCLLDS
tethered Notch1 V1744K (Q01705, form named): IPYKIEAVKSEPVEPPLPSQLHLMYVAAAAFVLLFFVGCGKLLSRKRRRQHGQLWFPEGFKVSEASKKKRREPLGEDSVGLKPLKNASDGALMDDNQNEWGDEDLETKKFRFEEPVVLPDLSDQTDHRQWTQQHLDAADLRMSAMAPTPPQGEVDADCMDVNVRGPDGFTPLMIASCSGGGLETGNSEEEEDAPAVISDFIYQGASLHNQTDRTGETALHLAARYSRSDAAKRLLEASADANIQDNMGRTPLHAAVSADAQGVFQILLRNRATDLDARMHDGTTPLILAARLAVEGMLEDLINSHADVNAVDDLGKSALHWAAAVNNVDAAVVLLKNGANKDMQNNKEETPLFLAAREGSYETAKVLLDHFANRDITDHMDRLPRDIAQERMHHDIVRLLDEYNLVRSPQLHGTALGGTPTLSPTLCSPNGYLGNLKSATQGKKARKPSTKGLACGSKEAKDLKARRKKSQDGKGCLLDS

The target of this test is endogenous β-Catenin of embryonic stem cells (ESCs) (UniProt Q02248). The test can be described thus: Co-IP with anti-Myc antibody from BIO-treated ESCs, immunoblot for β-Catenin.

Results are given in words; binding and its absence hold for the method and conditions named. In cells and extracts the contact can be indirect. Some entries that bind do so weakly or less than the wild type.

With “constitutively activated membrane-bound Notch1, wild-type at V1744 (from UniProt Q01705 1704-2183) (receptor)”, the binding entry was “binds”.

On to “tethered Notch1 V1744K (from UniProt Q01705 1704-2183) (receptor)”, for which the binding result is “binds”.
